According to patent publication EP4644426A1 (Gan & Lee Pharmaceuticals Co., Ltd., dated 2025):
These are yes or no findings as the source states them, for the method shown. Some entries that bind do so weakly or less than the wild type.

Protein sequences, listed by entry. Tags and fused reporters are not part of them. Residues count along the entry.
UniProt P03951, residues 19-625: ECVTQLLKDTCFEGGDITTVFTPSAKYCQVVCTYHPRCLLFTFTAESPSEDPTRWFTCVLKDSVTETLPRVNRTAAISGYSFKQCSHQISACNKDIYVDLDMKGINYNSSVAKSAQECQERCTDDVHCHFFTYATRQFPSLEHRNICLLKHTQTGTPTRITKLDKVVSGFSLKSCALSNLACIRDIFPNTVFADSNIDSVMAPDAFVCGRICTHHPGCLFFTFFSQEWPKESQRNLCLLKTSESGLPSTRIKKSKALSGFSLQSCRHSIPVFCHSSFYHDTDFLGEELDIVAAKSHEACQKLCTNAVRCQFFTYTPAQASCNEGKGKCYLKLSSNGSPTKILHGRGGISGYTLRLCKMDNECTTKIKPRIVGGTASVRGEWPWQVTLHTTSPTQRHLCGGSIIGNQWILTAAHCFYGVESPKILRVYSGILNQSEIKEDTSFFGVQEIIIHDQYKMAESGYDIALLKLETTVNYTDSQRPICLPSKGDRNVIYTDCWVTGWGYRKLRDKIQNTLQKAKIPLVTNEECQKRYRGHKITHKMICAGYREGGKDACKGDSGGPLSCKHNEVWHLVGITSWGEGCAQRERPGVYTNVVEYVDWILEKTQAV

Target: human FXIa factor (human, UniProt P03951 19-625)
Assay: Biacore 8K (SPR)

binding: binds
B1: humanized antibody 29E10C4-1 (antibody, human IgG1, kappa, V domains shown)
VH: QVQLVQSGAEVKKPGSSVKVSCKASGGTFSDYFIEWVRQAPGQGLEWMGVINPGNDVTNYNEKFKGRVTITADKSTSTAYMELSSLRSEDTAVYYCARSAGNYENSMDFWGQGTTVTVSS
VL: EIVLTQSPATLSLSPGERATLSCKASQSVSNDVGWYQQKPGQAPRLLIYYTSNRYTGIPARFSGSGSGTDFTLTISSLEPEDFAVYYCQQDYHFPLTFGGGTKVEIKR
notes: 29E10C4-1 is the only humanized form of that clone
